Data as given in paper doi:10.1101/808840.
These are yes or no findings as the source states them, for the method shown. In cells and extracts the contact can be indirect. Some entries that bind do so weakly or less than the wild type.

Sequences of proteins named here, by UniProt entry; tags and fusion partners are left off. A change or cut given only in a name is not applied to a line headed by its entry. A line that says so, or that is headed by a name, gives the form on record, which may keep a tag or linker.
UniProt Q07864: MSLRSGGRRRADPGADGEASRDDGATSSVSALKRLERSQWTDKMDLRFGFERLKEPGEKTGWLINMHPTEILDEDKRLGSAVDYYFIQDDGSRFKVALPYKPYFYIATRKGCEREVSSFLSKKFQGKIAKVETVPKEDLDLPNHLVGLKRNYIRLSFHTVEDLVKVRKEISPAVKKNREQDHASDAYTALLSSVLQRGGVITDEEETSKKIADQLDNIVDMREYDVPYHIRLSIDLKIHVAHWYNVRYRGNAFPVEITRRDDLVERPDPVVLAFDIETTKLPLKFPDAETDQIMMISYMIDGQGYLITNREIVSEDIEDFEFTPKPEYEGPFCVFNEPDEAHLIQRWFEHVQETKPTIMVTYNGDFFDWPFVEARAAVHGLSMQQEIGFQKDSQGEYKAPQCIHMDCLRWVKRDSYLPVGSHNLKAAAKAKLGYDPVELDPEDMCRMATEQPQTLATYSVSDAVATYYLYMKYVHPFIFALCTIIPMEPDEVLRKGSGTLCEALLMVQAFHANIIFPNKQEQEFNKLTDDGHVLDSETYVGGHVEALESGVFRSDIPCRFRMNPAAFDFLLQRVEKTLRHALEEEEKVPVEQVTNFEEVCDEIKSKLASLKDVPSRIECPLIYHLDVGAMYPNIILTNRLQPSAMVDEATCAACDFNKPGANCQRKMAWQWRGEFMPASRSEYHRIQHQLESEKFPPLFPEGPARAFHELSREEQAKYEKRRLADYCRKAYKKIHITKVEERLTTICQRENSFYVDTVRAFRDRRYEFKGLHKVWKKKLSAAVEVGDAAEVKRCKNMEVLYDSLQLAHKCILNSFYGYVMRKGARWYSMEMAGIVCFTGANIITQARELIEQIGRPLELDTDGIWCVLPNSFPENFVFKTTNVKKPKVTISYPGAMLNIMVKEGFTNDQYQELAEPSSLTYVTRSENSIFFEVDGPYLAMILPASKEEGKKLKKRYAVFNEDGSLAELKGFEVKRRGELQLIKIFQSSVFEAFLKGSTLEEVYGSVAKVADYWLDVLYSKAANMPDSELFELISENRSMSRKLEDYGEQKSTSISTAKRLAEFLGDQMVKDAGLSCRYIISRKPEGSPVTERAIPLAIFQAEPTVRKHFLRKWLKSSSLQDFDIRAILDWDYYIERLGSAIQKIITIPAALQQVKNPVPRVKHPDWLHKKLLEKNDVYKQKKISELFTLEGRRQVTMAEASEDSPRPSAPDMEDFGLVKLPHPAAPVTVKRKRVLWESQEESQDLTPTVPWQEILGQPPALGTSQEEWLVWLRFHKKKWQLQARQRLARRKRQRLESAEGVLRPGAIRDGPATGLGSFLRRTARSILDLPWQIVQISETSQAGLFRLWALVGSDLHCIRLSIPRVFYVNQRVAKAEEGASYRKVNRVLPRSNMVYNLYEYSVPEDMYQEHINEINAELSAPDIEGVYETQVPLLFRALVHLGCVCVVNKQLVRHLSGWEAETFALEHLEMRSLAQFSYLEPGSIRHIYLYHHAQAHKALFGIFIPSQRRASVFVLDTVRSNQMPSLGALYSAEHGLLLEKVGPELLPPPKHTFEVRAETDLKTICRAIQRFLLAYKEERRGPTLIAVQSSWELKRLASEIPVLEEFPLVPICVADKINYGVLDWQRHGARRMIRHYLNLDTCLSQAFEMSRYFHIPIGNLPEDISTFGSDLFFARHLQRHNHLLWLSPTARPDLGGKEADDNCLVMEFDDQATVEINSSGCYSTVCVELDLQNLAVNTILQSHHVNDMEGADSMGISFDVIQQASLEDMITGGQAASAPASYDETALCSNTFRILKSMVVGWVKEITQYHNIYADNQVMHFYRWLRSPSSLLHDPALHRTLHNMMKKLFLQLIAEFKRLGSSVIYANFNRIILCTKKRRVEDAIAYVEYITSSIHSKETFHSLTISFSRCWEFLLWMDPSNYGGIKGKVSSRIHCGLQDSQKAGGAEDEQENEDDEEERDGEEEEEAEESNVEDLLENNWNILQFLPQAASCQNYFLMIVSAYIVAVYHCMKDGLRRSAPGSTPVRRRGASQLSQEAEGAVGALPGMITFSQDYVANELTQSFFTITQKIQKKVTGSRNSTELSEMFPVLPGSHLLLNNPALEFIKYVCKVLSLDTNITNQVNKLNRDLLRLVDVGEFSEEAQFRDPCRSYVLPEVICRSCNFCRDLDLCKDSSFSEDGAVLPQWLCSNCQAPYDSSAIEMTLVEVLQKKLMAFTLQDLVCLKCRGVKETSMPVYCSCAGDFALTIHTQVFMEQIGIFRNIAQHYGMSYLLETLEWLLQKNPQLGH
pole1 315-AAIAAFA-321 with C-terminal GFP (Q07864, form named): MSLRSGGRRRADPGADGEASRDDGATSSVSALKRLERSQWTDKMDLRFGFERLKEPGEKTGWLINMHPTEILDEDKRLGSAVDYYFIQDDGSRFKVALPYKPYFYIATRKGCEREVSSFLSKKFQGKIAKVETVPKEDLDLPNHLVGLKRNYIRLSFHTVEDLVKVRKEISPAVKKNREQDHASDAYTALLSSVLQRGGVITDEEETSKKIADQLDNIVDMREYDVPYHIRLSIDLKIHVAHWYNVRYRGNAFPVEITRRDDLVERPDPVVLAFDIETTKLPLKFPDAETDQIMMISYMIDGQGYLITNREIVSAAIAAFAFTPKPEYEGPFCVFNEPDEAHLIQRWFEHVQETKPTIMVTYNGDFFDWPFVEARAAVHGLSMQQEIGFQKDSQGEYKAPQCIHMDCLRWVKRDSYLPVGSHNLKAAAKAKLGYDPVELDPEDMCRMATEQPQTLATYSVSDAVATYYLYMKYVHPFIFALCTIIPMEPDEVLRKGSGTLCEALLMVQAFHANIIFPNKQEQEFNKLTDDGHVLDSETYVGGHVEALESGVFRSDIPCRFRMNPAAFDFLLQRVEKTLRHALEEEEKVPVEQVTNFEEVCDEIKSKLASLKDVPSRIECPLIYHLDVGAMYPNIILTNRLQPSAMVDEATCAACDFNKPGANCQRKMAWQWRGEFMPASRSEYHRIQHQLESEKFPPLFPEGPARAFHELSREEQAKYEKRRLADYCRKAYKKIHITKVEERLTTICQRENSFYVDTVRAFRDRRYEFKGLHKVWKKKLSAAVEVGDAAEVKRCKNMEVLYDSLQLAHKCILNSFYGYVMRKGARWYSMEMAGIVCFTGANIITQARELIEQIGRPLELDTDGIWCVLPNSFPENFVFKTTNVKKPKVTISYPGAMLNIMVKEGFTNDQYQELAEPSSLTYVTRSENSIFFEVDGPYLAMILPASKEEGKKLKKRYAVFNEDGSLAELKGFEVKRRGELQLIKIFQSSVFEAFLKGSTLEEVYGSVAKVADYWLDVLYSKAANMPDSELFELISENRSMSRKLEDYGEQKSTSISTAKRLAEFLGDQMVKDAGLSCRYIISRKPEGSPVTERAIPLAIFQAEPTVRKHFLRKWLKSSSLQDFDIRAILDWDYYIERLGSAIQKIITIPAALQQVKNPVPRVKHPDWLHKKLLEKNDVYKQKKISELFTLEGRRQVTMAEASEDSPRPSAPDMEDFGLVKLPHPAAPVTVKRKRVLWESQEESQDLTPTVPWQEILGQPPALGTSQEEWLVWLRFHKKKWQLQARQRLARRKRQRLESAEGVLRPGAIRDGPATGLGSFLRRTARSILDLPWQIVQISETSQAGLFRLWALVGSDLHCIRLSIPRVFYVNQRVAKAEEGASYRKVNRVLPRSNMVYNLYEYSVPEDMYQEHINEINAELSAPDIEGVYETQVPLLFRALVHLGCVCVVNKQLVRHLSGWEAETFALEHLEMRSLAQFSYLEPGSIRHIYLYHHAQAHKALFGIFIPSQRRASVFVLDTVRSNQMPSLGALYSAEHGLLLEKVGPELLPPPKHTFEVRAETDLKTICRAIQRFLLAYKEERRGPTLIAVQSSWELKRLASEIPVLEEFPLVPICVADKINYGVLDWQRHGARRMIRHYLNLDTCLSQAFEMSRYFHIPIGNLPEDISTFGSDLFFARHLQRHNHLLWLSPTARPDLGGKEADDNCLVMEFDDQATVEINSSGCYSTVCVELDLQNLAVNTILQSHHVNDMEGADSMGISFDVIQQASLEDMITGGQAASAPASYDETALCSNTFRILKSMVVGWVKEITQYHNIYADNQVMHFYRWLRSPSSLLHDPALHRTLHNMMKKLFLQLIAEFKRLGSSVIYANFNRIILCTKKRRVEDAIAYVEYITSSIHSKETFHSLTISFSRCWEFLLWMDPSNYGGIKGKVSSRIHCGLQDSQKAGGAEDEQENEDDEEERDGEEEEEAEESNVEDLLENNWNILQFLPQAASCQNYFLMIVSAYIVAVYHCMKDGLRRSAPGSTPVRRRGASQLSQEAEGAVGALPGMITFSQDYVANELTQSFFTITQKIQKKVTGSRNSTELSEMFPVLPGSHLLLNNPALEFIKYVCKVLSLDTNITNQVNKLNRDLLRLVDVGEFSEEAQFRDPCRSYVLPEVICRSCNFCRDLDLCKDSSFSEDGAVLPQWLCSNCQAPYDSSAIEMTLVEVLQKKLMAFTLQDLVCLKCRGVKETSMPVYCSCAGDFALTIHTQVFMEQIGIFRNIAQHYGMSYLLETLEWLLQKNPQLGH
UniProt Q8WVB6: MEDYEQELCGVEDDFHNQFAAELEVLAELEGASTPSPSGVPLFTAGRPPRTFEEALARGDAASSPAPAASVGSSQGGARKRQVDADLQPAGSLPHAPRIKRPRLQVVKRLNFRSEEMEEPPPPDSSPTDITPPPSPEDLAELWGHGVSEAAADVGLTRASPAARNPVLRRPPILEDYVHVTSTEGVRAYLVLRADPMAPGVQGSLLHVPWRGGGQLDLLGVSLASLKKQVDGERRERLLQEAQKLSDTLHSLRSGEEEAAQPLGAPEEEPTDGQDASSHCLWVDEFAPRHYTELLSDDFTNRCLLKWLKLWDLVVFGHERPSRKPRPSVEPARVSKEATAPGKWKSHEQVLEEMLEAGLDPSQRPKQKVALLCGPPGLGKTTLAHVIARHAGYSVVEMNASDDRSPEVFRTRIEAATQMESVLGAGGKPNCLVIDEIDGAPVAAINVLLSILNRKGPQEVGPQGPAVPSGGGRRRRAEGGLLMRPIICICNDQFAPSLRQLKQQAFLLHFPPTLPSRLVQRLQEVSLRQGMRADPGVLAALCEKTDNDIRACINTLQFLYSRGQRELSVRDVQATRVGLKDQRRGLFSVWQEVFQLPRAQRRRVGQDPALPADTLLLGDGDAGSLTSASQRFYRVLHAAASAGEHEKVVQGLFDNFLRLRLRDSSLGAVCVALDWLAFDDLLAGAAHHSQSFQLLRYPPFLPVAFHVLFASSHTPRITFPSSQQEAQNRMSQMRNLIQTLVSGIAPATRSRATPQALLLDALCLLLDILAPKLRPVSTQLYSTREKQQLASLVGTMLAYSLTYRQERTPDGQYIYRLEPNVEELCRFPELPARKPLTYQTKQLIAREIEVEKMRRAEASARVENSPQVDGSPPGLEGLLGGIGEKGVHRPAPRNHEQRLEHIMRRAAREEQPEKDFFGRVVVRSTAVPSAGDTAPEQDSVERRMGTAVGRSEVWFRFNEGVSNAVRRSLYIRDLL
UniProt P15873: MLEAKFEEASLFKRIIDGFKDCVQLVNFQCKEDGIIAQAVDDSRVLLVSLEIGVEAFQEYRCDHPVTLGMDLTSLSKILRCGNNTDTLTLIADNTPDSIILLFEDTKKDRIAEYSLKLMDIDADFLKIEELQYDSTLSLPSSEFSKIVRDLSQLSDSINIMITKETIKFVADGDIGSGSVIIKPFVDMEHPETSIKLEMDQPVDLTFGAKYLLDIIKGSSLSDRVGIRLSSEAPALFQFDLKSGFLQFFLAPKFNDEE

Tests used:
Assay in all cases: co-IP
[1] = target: POLE1 with N-terminal GFP, wild type (human) (UniProt Q07864)
[2] = target: POLE1 with C-terminal GFP, wild type (human) (UniProt Q07864)
[3] = target: pole1 315-AAIAAFA-321 with N-terminal GFP (human) (UniProt Q07864)
[4] = target: pole1 315-AAIAAFA-321 with C-terminal GFP (human) (UniProt Q07864)
[5] = target: Mcm3 with TAP tag (S. cerevisiae (endogenous in W303-derived strains)) (UniProt P24279)

“Ctf18 (human, of CTF18-RFC) (from UniProt Q8WVB6 1-975)” was tested, and the binding [1] was “binds”, the binding [2] was “binds” and the binding [3] was “no binding”. The binding [4] was “no binding”.
PCNA (from UniProt P15873 1-258) was tested, and the binding [5] was “binds”.
